# The full ranking holds about 33,000 sequences; the median of “E-score (-0.5 to 0.5)” is about -0.016, and the highest 2% start at about 0.3. This is one part of the list.
# Biological target: T1, Yer184c (UniProt P39961)
# T1 sequence: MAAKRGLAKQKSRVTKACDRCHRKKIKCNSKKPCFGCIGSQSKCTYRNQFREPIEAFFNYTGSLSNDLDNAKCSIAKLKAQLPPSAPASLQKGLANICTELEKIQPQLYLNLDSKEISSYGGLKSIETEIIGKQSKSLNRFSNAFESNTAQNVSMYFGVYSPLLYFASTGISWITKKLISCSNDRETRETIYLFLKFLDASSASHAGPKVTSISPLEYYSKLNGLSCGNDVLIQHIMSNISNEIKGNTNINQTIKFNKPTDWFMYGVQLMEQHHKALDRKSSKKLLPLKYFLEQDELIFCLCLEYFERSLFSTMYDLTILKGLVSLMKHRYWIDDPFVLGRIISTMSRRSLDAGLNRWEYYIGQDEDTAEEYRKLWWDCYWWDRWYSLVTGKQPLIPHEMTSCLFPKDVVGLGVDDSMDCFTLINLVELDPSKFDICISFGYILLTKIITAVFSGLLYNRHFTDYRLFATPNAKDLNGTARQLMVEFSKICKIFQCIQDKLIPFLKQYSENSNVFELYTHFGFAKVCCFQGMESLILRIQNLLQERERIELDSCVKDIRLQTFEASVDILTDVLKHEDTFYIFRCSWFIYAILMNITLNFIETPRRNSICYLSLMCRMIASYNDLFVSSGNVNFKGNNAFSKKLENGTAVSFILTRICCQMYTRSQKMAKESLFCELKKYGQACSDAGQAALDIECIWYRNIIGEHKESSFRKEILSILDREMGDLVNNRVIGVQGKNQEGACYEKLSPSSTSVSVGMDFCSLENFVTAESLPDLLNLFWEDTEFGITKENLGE
# Assay: PBM E-score (8-mer binding enrichment) (E-score (-0.5 to 0.5)); higher = stronger / more preferred TF binding
# Settings: protein concentration: 100 nM; construct: GST-full length
# How it was run: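 Yeast transcription factors carrying a GST tag, as full-length proteins or DNA-binding domains, were produced by PURExpress in vitro transcription/translation. About 100-200 nM protein was applied to universal all-10-mer Agilent arrays, double-stranded by primer extension on fresh or once-stripped slides. Bound protein was detected with fluorescent anti-GST, and scans were normalised with masliner. The Universal PBM Analysis Suite gave each ungapped eight-base word, pooled with its reverse complement, an E-score, a modified Wilcoxon-Mann-Whitney statistic.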
row,Sequence,PBM E-score
1,GCCCGCAC,-0.0678
2,ACGATATG,0.0984
3,GCACGGTA,-0.0237
4,CTGACTCC,-0.253
5,CTCTTAAC,0.0497
6,ACGAGAAC,-0.0476
7,ACTGATCG,-0.103
8,GCCTGGGA,-0.0696
9,AAACTACA,0.159
10,ACGGCAGA,0.122
11,CATCGAAC,-0.0705
12,ATCATGTG,-0.0738
13,AACTTAGT,0.102
14,GGCTCCCC,-0.217
15,ATAATGCG,-0.0333
16,CGGGATAC,0.139
17,AGTTCCTA,0.0989
18,CTCCCAGA,-0.191
19,GCCATGGC,-0.179
20,ACAGAAGC,0.0633
21,AGCACCCA,-0.213
22,ATACGAAC,0.125
23,GAGGGGGA,-0.326
24,CGCACGAC,-0.122
25,ATTGCACA,-0.00033

row,Sequence,PBM E-score
1,CGGGGAGC,-0.0385
2,GAGAAGTA,0.0279
3,CGTCACAG,-0.168
4,ACGCACAC,0.0231
5,AGTGTGAT,0.0863
6,ATAAGCGA,0.158
7,CCTGTACC,-0.18
8,AATGAGAA,0.121
9,CCGACAAC,0.13
10,AGTCGAAT,-0.0811
11,ACCCACCT,-0.363
12,AACCGTTC,0.168
13,AGGTGGGC,-0.3
14,CCTGTCAC,-0.0568
15,TATAACAA,0.274
16,ATTTCGTC,-0.0283
17,GTGAAGTA,0.00432
18,CCCGAGGG,0.111
19,GAACAGGA,0.0359
20,ATGTCTAA,0.061
21,AGTGATAC,-0.00601
22,CAAGTTGC,-0.0601
23,CCTCCACA,-0.209
24,GTGCCTTA,-0.0564
25,AGTACCTC,-0.17

row,Sequence,PBM E-score
1,GTTTAACA,0.0617
2,CAAACGCC,0.0277
3,ACGTTAGA,0.0206
4,CAGACGAC,-0.334
5,AAGTCACA,0.0291
6,CGCCGTTA,0.102
7,GGTTCCCA,-0.19
8,GGAATGAC,0.099
9,ATTGGAGC,0.0215
10,AAATCAGT,0.191
11,GTCACGAC,-0.051
12,ATAACCAC,-0.197
13,CCCAACAG,-0.181
14,ACTCTTAG,-0.155
15,GATCTCCA,-0.113
16,ATCCGCCA,0.0237
17,GATATCGA,-0.0301
18,GAACCAAC,-0.0522
19,ACGTTCAT,-0.236
20,AAGAATCT,0.00106
21,GACACCCA,-0.151
22,GGGCCAGA,-0.108
23,GGCTTCCC,-0.121
24,AGGTCGAT,0.108
25,GATACGAC,-0.0684

row,Sequence,PBM E-score
1,AAGCCTCA,-0.184
2,TCTCCTAA,-0.122
3,GGTTCCAA,0.195
4,ACAACTAG,-0.0858
5,AACAGCGC,-0.0852
6,TACTTCGA,0.236
7,ACGTAAAC,-0.198
8,AAACCGTC,0.176
9,AATGCTAT,0.0422
10,GGGCTAGA,-0.183
11,ACTCCTCC,-0.108
12,TCGAAAAA,0.169
13,AGGCATGA,-0.224
14,ACCGACTA,-0.0743
15,AGCTGCAA,-0.112
16,CGATTTGA,-0.0198
17,GACCCCGA,-0.023
18,GGGTGGAC,-0.13
19,GAACTCCC,0.173
20,GGGCCTCA,-0.0388
21,GGAGCTTA,-0.0665
22,ACTTTATC,0.206
23,GGGATAAC,-0.0432
24,AAGACCCG,-0.0326
25,AATAGGCT,-0.0742

row,Sequence,PBM E-score
1,CAAATGCC,0.0727
2,CCGAGCGA,0.244
3,CAGCGCCC,-0.169
4,CTAATTGC,0.108
5,GGGTCTCA,-0.338
6,GTCGGCAA,0.263
7,CCTGTTGC,-0.214
8,ATCTTCCC,0.136
9,CCAAGATC,-0.0163
10,GTCAATCA,-0.189
11,AATGAGCC,-0.18
12,AAATGTCT,-0.105
13,GCCCGACA,0.0418
14,ACGATGAC,-0.00353
15,CGCGTCCG,0.00597
16,AACCGATG,0.0165
17,AACGGTGG,-0.174
18,CATAAGAG,-0.0493
19,AGAAGCTC,0.0486
20,AGAGAGGG,-0.257
21,CATGCAGC,-0.0238
22,GGAGTGCC,0.0423
23,AAAGCTGC,-0.0613
24,ACCGGGCA,0.0539
25,ATGCCTCG,0.0701

row,Sequence,PBM E-score
1,CGTCCGCA,0.00165
2,ACGTTTCC,-0.0446
3,GATGATTA,0.051
4,CGCTCCAA,-0.176
5,GTTCTAAA,0.169
6,CGGAGTTA,0.274
7,TCGAGGAA,-0.099
8,GCCTACAA,0.101
9,AACACTTG,-0.0973
10,CCCCGAGA,-0.123
11,ACTGCACG,-0.0551
12,CGCTCGTC,-0.25
13,CTAAAAGA,-0.0458
14,AATAACGC,-0.179
15,ATCCGATC,0.235
16,ACAACATC,0.117
17,TATATTGA,0.181
18,GCTTATCA,-0.102
19,AGTCTATC,-0.0599
20,CCCTTAAG,0.0295
21,GGTGAACC,0.034
22,CCCCGATA,-0.191
23,CTCGTGGC,-0.0488
24,AGTTAGAA,0.136
25,CCGGTGTA,0.181

# Reprinted at random: 4 entries already listed
row,Sequence,PBM E-score
22,CAAGTTGC,-0.0601
14,ACGATGAC,-0.00353
12,ATCATGTG,-0.0738
2,ACGATATG,0.0984

# A run of entries of the results above, for reference:
row,Sequence,PBM E-score
14,CCTGTCAC,-0.0568
15,TATAACAA,0.274

# (list continues)

row,Sequence,PBM E-score
1,CCTAAGTA,0.106
2,AACGGCCT,-0.0413
3,CACACTTA,0.121
4,GAGGAGTA,0.00964
5,GCAACGTA,-0.075
6,AGTGGCTG,-0.191
7,AGGCCTGA,-0.0729
8,ATCGAATG,-0.224
9,CTATGTAA,-0.0731
10,CGATCCAA,-0.0183
11,AGCACTAT,-0.183
12,TAGGTGGA,-0.12
13,CCATATAG,-0.148
14,GGATCATA,-0.187
15,AAATATAC,0.0721
16,CGACCAAA,0.216
17,CGTATGGA,0.0135
18,AACTAGTT,0.0195
19,GTTCTCCA,0.0609
20,ACTCGTAC,-0.11
21,GGCTAACA,0.107
22,ATACCGAC,0.0349

# From the supplement of paper PMC3334620
